# Measured values published in the M2OR odorant receptor database.
# The entries are a selection whose mix differs from that of the whole data set. The calls were merged from several studies; some rest on single wells. The list shows a part of the results. Some of the results follow.
# How the values were obtained:
# Details in all cases: stereoisomer not certain
# [1] = system: T1, 
# T1 sequence (whole entry): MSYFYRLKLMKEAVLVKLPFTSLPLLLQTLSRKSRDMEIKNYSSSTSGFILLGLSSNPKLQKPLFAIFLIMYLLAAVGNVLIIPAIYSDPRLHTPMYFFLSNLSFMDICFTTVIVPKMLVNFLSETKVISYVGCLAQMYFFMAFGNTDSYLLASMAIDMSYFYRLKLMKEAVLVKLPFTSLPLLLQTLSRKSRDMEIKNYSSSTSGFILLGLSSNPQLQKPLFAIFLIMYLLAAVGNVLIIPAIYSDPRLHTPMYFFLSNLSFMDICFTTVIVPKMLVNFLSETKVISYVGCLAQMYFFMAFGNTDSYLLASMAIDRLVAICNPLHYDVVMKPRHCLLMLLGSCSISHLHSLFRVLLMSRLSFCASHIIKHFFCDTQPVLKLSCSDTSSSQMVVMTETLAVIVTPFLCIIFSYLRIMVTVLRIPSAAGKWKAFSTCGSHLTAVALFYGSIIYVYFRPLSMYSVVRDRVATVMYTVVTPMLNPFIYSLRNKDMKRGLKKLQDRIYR
# How it was run: (§1)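 Assay methods differ from source to source, frequently being transient luciferase assays in mammalian cell lines. For each receptor–molecule pair, the label responsive (active) applies when the original authors judged the measured signal statistically different from baseline, and non-responsive (inactive) applies otherwise.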
# A0A140T8K0 = system: T2, A0A140T8K0
# T2 sequence (whole entry): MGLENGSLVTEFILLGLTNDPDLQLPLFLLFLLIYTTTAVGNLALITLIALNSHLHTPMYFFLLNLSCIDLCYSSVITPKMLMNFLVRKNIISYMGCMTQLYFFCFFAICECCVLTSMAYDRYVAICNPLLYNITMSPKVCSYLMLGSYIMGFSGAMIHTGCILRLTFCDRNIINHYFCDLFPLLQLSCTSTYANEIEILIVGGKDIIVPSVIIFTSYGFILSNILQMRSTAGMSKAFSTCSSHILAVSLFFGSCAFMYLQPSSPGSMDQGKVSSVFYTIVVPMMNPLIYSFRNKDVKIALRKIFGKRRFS
# How it was run: as §1
# A0A140T8K4 = system: T3, A0A140T8K4
# T3 sequence (whole entry): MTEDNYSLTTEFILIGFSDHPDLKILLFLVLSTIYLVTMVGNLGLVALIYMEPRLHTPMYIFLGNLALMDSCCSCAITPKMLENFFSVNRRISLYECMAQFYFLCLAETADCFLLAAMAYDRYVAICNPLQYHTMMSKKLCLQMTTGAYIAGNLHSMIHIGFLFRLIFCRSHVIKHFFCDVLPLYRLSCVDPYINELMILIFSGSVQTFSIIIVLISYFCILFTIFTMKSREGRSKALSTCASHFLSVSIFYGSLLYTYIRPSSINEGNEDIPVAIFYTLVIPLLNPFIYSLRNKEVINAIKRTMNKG
# How it was run: as §1
# A0A1L1SVG7 = system: T4, A0A1L1SVG7
# T4 sequence (whole entry): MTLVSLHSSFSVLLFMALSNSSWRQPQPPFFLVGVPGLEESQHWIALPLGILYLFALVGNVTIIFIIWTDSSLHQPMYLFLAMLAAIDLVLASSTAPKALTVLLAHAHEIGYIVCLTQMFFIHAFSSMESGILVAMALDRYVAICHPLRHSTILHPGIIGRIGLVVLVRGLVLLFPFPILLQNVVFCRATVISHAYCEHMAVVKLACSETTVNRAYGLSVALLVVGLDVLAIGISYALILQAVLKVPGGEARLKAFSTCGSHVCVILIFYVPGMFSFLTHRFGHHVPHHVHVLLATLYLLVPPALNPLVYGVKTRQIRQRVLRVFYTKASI
# How it was run: as §1
# O1020 = system: T5, O1020
# T5 sequence (whole entry): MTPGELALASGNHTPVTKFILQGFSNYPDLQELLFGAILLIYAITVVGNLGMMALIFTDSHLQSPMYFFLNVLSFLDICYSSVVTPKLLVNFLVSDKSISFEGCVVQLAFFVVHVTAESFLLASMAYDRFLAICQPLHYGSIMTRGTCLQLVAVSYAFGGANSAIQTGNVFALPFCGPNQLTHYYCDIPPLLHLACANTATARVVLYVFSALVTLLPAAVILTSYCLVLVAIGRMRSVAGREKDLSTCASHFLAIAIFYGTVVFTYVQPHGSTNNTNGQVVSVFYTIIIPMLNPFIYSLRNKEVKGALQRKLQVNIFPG
# How it was run: as §1
# O1052 = system: T6, O1052
# T6 sequence (whole entry): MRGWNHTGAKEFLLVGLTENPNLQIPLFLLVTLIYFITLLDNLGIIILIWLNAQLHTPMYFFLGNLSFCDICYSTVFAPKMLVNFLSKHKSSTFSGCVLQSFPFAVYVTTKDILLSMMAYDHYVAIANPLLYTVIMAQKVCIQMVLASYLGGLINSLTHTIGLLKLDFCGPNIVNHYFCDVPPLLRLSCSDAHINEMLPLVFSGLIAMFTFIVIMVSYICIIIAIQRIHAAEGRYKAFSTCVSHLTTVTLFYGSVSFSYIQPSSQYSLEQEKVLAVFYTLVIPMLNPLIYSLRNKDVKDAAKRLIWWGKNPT
# How it was run: as §1
# O10A2 = system: T7, O10A2
# T7 sequence (whole entry): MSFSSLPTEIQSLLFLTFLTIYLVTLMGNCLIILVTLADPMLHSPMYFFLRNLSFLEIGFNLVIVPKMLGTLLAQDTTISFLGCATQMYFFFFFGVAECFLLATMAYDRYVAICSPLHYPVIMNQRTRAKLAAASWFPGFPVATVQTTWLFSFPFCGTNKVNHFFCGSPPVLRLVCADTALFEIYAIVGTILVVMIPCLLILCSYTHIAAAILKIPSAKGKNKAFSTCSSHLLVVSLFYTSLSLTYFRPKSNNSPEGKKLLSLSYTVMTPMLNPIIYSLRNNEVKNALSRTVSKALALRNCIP
# How it was run: as §1
# A0A2J8MY22 = system: A0A2J8MY22
# How it was run: as §1
# A0A2R8ZIW4 = system: A0A2R8ZIW4
# How it was run: as §1
# A0A3Q7SVK8 = system: A0A3Q7SVK8
# How it was run: as §1
# A0A6P3DZI2 = system: A0A6P3DZI2
# How it was run: as §1
# A0A6P6H1F7 = system: A0A6P6H1F7
# How it was run: as §1
compound,measurement,setting,value
CCCCCC(=O)O,odorant receptor agonist call,[1],inactive
same,odorant receptor agonist call,A0A140T8K0,inactive
same,odorant receptor agonist call,A0A140T8K4,inactive
same,odorant receptor agonist call,A0A1L1SVG7,inactive
same,odorant receptor agonist call,O1020,inactive
same,odorant receptor agonist call,O1052,inactive
same,odorant receptor agonist call,O10A2,inactive
CC(C)C=O,odorant receptor agonist call,[1],inactive
same,odorant receptor agonist call,A0A140T8K0,inactive
same,odorant receptor agonist call,O1020,inactive
same,odorant receptor agonist call,O1052,inactive
same,odorant receptor agonist call,O10A2,inactive
CC(=O)c1ccccc1,odorant receptor agonist call,[1],inactive
same,odorant receptor agonist call,A0A140T8K0,inactive
same,odorant receptor agonist call,A0A140T8K4,inactive
same,odorant receptor agonist call,A0A1L1SVG7,inactive
same,odorant receptor agonist call,O1020,inactive
same,odorant receptor agonist call,O1052,inactive
same,odorant receptor agonist call,O10A2,inactive
CC(C)=CCCC(C)=CC=O,odorant receptor agonist call,[1],inactive
same,odorant receptor agonist call,A0A140T8K0,inactive
same,odorant receptor agonist call,O1020,inactive
same,odorant receptor agonist call,O1052,inactive
same,odorant receptor agonist call,O10A2,inactive
CCCCCOC(C)=O,odorant receptor agonist call,[1],inactive
same,odorant receptor agonist call,A0A140T8K0,inactive
same,odorant receptor agonist call,O1020,inactive
same,odorant receptor agonist call,O1052,inactive
same,odorant receptor agonist call,O10A2,inactive
CC1COCc2cc3c(cc21)C(C)(C)C(C)C3(C)C (stereo unspecified),odorant receptor agonist call,[1],active
same,odorant receptor agonist call,A0A140T8K0,inactive
same,odorant receptor agonist call,O1020,active
same,odorant receptor agonist call,O1052,inactive
same,odorant receptor agonist call,O10A2,inactive
C=CCc1ccc(OC)c(OC)c1,odorant receptor agonist call,[1],inactive
same,odorant receptor agonist call,A0A140T8K0,inactive
same,odorant receptor agonist call,A0A140T8K4,inactive
same,odorant receptor agonist call,A0A2J8MY22,active
same,odorant receptor agonist call,A0A2R8ZIW4,active
same,odorant receptor agonist call,A0A3Q7SVK8,active
same,odorant receptor agonist call,A0A6P3DZI2,active
same,odorant receptor agonist call,A0A6P6H1F7,active
same,odorant receptor agonist call,O1020,inactive
same,odorant receptor agonist call,O1052,inactive
same,odorant receptor agonist call,O10A2,inactive
CC(=O)OC1CC2CCC1(C)C2(C)C (stereo unspecified),odorant receptor agonist call,[1],inactive
same,odorant receptor agonist call,A0A140T8K0,inactive
same,odorant receptor agonist call,O1020,inactive
same,odorant receptor agonist call,O1052,inactive
same,odorant receptor agonist call,O10A2,inactive
c1cnccn1,odorant receptor agonist call,[1],inactive
same,odorant receptor agonist call,A0A140T8K0,inactive
same,odorant receptor agonist call,O1020,inactive
same,odorant receptor agonist call,O1052,inactive
same,odorant receptor agonist call,O10A2,inactive
CC12CCC(CC1)C(C)(C)O2,odorant receptor agonist call,[1],inactive
same,odorant receptor agonist call,A0A140T8K0,inactive
same,odorant receptor agonist call,O1020,inactive
same,odorant receptor agonist call,O1052,inactive
same,odorant receptor agonist call,O10A2,inactive
O=C1CCCCC1,odorant receptor agonist call,[1],inactive
same,odorant receptor agonist call,A0A140T8K4,inactive
same,odorant receptor agonist call,A0A1L1SVG7,inactive
same,odorant receptor agonist call,O1020,inactive
same,odorant receptor agonist call,O1052,inactive
same,odorant receptor agonist call,O10A2,inactive
CCCC(=O)O,odorant receptor agonist call,[1],inactive
same,odorant receptor agonist call,O1020,inactive
same,odorant receptor agonist call,O1052,inactive
same,odorant receptor agonist call,O10A2,inactive
CC1CCC(C(C)C)C(O)C1 (stereo unspecified),odorant receptor agonist call,[1],inactive
same,odorant receptor agonist call,O1020,inactive
same,odorant receptor agonist call,O1052,inactive
same,odorant receptor agonist call,O10A2,inactive
CC(=O)C(C)=O,odorant receptor agonist call,[1],inactive
same,odorant receptor agonist call,A0A140T8K0,inactive
same,odorant receptor agonist call,O1020,inactive
same,odorant receptor agonist call,O1052,inactive
same,odorant receptor agonist call,O10A2,inactive
CCCCCCCCCC=O,odorant receptor agonist call,[1],inactive
same,odorant receptor agonist call,A0A140T8K0,inactive
same,odorant receptor agonist call,A0A140T8K4,inactive
same,odorant receptor agonist call,A0A1L1SVG7,active
same,odorant receptor agonist call,O1020,inactive
same,odorant receptor agonist call,O1052,inactive
same,odorant receptor agonist call,O10A2,inactive

# 5 entries picked at random from those above, as already listed:
compound,measurement,setting,value
CCCC(=O)O,odorant receptor agonist call,O1020,inactive
C=CCc1ccc(OC)c(OC)c1,odorant receptor agonist call,O1052,inactive
CCCCCC(=O)O,odorant receptor agonist call,A0A140T8K0,inactive
C=CCc1ccc(OC)c(OC)c1,odorant receptor agonist call,A0A140T8K0,inactive
same,odorant receptor agonist call,A0A2R8ZIW4,active
